The other results are listed elsewhere or left out.
Compound: C1COCCN1CCN2C3=CC=CC=C3N=C2NC(=O)C4=CC(=CC=C4)[N+](=O)[O-] [IRAK-1-4 Inhibitor I]
Test: log2 fold change, soluble protein after heating vs DMSO (PISA); higher = thermal stabilisation; K562 cells, 10 uM, 30 min; active = over 0.2 and 3.5 SD of the protein, either way, in both replicates (recomputed)
Outline: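 K562 cells at 2×10^6 cells/mL were exposed to 10 μM compound for 30 min, then aliquots were heated for 3 min across 48°C-58°C, pooled, and extracted in PBS containing 0.5% NP-40 at 4°C. The supernatant after 21,000xg for 90 min was taken as soluble protein and measured by TMTpro 16plex LC-MS/MS with channel sums equalised. Thermal stability is reported relative to control samples, with values from duplicates. Fold changes are given on a log2 scale.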

By UniProt entry, the sequences of proteins in these tests, tags left out. Where a name states a change or a piece, a line headed by the entry shows the natural chain unless it says otherwise.
UniProt Q96M93: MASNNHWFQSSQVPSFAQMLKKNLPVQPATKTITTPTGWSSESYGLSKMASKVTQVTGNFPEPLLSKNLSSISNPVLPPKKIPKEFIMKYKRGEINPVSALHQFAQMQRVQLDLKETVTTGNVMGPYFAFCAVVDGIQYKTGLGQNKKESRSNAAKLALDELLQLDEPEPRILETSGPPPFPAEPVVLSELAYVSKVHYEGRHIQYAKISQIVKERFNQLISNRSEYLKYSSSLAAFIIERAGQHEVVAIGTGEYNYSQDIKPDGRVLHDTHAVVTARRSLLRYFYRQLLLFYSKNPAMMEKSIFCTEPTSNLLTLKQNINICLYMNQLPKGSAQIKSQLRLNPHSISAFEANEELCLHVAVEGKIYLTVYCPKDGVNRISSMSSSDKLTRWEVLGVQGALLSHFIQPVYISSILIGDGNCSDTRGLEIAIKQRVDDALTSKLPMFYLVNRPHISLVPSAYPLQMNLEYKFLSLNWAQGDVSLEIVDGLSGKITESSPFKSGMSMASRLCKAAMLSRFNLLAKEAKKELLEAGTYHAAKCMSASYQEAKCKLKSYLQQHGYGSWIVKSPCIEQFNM
UniProt P08183, whole entry, looked up: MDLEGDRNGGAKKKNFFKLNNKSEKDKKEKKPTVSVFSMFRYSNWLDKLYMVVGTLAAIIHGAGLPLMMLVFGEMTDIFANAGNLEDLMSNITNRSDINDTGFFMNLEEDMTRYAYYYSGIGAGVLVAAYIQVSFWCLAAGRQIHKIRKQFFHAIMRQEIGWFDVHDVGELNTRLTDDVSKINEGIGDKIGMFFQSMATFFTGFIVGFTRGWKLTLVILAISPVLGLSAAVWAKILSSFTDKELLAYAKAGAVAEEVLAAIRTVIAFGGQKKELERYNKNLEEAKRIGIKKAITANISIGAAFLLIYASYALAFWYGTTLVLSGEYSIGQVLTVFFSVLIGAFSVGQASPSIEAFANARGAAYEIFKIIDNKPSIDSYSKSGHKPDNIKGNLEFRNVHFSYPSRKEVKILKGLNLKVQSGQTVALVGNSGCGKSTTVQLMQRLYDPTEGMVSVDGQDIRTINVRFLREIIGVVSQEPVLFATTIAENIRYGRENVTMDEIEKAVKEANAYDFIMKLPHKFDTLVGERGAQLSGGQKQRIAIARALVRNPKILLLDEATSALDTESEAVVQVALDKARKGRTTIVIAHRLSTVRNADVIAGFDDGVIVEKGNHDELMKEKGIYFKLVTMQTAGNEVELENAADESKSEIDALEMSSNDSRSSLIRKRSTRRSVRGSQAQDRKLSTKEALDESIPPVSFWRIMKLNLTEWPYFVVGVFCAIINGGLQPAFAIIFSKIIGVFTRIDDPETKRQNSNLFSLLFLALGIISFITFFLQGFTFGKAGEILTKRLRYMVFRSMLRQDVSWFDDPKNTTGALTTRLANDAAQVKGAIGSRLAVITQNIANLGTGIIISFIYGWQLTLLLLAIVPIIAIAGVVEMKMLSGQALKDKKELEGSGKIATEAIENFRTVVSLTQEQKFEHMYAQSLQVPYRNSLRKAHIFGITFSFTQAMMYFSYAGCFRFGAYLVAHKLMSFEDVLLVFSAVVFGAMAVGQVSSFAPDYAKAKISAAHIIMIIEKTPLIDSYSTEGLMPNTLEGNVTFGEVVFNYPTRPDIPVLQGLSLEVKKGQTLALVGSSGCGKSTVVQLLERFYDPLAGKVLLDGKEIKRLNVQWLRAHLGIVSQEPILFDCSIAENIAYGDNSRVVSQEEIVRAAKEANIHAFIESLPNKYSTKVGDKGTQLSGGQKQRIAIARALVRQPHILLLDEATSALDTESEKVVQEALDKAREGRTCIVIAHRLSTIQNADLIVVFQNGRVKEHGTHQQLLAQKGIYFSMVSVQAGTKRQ
UniProt Q15067: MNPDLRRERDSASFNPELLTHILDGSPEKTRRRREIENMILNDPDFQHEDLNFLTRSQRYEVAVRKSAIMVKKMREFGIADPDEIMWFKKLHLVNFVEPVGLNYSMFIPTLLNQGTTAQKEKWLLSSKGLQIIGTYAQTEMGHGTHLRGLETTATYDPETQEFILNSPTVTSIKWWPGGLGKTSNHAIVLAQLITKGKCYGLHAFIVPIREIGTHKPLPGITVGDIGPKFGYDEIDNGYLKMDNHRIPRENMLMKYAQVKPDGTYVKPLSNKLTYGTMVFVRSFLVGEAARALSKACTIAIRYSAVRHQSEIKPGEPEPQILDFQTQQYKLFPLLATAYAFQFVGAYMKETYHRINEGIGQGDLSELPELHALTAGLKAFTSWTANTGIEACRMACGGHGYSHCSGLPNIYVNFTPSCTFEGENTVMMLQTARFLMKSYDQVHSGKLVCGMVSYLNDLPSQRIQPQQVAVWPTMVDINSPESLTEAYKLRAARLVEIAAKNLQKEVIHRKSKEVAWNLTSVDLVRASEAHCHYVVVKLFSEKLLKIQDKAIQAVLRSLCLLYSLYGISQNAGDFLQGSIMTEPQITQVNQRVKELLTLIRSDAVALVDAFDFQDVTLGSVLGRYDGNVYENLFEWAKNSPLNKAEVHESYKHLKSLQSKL
UniProt Q9BTE6: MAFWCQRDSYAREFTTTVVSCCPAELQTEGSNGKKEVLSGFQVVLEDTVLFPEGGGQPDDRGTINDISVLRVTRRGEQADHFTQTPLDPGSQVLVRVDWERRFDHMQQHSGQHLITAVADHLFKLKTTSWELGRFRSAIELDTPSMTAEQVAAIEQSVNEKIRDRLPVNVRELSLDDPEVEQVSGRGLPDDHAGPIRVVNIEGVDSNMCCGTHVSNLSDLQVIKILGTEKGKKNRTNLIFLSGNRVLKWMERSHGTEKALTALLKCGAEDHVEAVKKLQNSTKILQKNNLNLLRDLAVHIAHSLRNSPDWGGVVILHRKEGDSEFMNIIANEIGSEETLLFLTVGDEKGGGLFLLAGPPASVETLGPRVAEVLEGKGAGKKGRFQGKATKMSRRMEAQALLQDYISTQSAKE
UniProt Q86TW2: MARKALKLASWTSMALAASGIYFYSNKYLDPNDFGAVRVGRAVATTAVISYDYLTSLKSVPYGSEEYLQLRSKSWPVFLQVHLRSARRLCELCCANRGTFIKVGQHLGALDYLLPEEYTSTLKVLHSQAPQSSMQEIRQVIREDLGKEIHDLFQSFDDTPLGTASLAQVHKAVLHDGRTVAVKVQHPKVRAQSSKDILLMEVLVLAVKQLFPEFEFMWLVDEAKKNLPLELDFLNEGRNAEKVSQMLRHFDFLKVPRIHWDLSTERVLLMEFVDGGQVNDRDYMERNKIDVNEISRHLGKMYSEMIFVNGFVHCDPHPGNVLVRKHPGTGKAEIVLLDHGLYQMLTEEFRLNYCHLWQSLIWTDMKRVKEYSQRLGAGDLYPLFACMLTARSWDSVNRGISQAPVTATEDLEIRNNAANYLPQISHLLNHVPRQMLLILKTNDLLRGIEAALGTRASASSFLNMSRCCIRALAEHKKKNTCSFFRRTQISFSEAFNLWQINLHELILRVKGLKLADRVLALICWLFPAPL
UniProt Q8WTS1: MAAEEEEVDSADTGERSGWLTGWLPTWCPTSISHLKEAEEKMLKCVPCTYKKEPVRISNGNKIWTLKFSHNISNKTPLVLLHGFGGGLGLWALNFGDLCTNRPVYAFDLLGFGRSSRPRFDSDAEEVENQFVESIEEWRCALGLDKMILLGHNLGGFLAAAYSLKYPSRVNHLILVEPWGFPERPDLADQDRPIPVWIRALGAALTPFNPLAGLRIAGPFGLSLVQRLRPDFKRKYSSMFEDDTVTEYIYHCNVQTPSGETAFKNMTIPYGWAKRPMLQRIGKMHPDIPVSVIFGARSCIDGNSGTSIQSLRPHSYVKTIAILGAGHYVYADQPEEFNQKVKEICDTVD
UniProt P14621: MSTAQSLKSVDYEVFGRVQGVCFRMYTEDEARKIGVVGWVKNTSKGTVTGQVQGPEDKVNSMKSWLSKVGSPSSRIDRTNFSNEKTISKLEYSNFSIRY
UniProt P42684, whole entry, looked up: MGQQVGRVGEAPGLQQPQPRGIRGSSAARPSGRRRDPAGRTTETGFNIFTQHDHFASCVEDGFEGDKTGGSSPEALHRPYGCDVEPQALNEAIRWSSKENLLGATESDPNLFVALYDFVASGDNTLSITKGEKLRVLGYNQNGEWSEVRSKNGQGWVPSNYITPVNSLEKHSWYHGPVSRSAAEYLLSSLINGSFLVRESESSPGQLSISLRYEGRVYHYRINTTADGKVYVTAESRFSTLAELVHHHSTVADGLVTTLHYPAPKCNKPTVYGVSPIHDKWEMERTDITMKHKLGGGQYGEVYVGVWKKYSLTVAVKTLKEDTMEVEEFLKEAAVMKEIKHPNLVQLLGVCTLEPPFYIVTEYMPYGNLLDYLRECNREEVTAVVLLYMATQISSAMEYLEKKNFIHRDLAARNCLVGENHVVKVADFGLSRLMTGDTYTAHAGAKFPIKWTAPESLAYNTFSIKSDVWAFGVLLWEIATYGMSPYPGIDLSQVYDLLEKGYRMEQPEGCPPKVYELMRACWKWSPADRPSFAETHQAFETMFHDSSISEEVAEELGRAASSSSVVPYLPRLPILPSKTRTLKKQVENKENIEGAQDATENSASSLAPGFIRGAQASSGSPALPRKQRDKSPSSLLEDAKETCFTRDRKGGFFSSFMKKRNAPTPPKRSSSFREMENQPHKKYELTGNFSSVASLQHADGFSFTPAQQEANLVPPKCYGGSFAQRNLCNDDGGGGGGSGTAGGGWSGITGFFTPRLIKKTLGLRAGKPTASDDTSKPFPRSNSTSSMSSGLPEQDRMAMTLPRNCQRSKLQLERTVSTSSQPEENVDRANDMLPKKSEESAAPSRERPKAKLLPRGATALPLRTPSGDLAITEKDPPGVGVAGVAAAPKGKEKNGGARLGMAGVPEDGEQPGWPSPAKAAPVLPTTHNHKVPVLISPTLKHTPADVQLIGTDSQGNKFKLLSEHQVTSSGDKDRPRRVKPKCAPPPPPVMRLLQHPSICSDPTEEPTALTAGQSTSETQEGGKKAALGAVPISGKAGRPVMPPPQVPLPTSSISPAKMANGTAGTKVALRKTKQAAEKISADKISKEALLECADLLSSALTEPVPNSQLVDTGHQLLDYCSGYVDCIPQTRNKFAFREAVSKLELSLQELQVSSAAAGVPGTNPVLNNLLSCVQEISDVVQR
UniProt Q9P1F3: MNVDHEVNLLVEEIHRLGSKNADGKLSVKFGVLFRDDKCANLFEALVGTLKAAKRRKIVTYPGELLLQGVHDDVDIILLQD
UniProt Q9NX38: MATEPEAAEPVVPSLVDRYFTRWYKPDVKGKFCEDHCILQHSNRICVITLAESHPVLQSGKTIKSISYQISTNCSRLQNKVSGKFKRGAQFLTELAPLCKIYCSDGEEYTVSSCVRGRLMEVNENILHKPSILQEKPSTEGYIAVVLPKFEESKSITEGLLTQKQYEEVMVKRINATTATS
UniProt Q4L235: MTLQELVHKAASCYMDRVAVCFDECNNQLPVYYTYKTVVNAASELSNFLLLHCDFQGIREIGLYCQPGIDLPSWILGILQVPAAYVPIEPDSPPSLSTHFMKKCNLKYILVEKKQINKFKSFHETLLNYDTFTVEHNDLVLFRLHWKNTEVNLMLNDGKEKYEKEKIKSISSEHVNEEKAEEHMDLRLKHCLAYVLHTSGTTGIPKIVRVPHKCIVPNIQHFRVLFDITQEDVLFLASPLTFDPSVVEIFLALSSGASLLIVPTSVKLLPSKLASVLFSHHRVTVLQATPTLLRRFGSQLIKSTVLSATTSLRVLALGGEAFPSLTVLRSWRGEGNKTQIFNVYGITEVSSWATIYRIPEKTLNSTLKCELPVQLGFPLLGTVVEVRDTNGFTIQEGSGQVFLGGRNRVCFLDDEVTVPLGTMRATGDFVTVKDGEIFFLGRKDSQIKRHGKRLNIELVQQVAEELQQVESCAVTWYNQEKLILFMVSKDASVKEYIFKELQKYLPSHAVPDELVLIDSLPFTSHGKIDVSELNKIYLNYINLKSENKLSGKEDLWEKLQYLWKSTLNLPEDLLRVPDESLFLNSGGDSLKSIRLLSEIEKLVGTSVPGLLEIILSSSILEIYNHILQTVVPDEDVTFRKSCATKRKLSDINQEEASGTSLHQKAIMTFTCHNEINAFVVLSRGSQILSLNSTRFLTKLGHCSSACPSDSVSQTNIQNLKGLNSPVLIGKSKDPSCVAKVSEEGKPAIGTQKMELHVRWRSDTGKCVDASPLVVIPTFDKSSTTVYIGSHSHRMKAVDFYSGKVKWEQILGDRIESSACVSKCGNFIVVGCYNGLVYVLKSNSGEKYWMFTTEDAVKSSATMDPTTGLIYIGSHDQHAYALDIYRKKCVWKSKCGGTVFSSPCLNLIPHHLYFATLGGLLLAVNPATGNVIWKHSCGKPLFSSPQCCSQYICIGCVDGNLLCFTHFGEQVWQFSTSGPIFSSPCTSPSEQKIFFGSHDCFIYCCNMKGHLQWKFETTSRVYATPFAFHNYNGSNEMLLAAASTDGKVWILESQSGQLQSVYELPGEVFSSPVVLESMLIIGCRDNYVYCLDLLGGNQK

log2 fold change, inactive:
ACTR3B (UniProt Q9P1U1) -0.04
ADAD1 (UniProt Q96M93) -0.01
ABCB1 (UniProt P08183) 0.195
ACTG1 (UniProt K7EM38) 0.121
ADAM8 (UniProt P78325) 0.021
ACOX1 isoform 3 (UniProt Q15067) -0.073
AARSD1 (UniProt Q9BTE6) 0.264
ADCK1 (UniProt Q86TW2) 0.102
ABHD5 (UniProt Q8WTS1) 0.065
ACAT1, A0A5F9ZHJ0 0.041
ACYP2 (UniProt P14621) 0.009
ABL2 (UniProt P42684) -0.157
ABRACL (UniProt Q9P1F3) -0.01
ABITRAM (UniProt Q9NX38) 0.041
ABCA2 isoform 3 (UniProt Q9BZC7) 0.007
AASDH (UniProt Q4L235) 0.037

Quoted from the listing for reference:
log2 fold change, inactive:
ABHD5 (UniProt Q8WTS1) 0.065
ACAT1, A0A5F9ZHJ0 0.041
ACYP2 (UniProt P14621) 0.009

From the supplement of paper PMC10849652
